Values from PubChem BioAssay AID1053208 (Peter MacCallum Cancer Centre, 2014).
Test: 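Synthetic lethal interactions between gene loss and doxorubicin in osteosarcoma cells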 (primary screen). System: mouse osteosarcoma cells, early-passage culture from an engineered mouse model of fibroblastic bone tumour. Reagents: siRNA pool against mouse genes, 40 nM. Time to read-out: about 120 h (48 h before drug, then 72 h with drug). Treatment: doxorubicin 100 nM for 72 h, roughly 30-40% inhibitory dose. Measurement: 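Luminescent ATP signal taken as viability with or without 100 nM doxorubicin for 72 h; mean of two wells set against non-targeting siRNA and turned into robust z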. Scale: viability z-score with doxorubicin: higher = more viable cells under doxorubicin; viability z-score without drug: higher = more viable cells with knock-down alone. Rule for the call: 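a pool counts as active when its viability z-score with doxorubicin is -2 or below and its z-score without drug lies between -2 and 2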.
This is an unselected part of about 17,000 reagents tested. In the full data, 788 (4.7%) got an active call. 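Calls rest on z-score classes alone; an extra cut-off of viability at most 70% of control was not applied to them.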 Not all columns of the deposit are shown.

Eif4ebp3 → combined z-score class = no change with or without drug; viability z-score with doxorubicin = -0.45; viability z-score without drug = 1.85; outcome = inactive
Gigyf1 (GRB10 interacting GYF protein 1) → combined z-score class = no change with or without drug; viability z-score with doxorubicin = -1.57; viability z-score without drug = -1.52; outcome = inactive
Pink1 (PTEN induced putative kinase 1) → combined z-score class = no change with or without drug; viability z-score with doxorubicin = 0.45; viability z-score without drug = 0.84; outcome = inactive
Mtrfr (mitochondrial translation release factor in rescue) → combined z-score class = no change with or without drug; viability z-score with doxorubicin = 0.22; viability z-score without drug = 0.17; outcome = inactive
Nedd9 → combined z-score class = low cell count with doxorubicin only; viability z-score with doxorubicin = -2.02; viability z-score without drug = -0.51; outcome = active
Grm1 (glutamate receptor, metabotropic 1) → combined z-score class = high cell count with doxorubicin only; viability z-score with doxorubicin = 2.02; viability z-score without drug = 0.84; outcome = inactive
Pla2g4a (phospholipase A2, group IVA (cytosolic, calcium-dependent)) → combined z-score class = no change with or without drug; viability z-score with doxorubicin = 0.67; viability z-score without drug = 1.35; outcome = inactive
Crls1 (cardiolipin synthase 1) → combined z-score class = no change with or without drug; viability z-score with doxorubicin = -1.24; viability z-score without drug = -0.17; outcome = inactive
Polr1g (RNA polymerase I subunit G) → combined z-score class = no change with or without drug; viability z-score with doxorubicin = -0.9; viability z-score without drug = 0.84; outcome = inactive

The list goes on; the last 2 above are carried over.
Crls1 (cardiolipin synthase 1) → combined z-score class = no change with or without drug; viability z-score with doxorubicin = -1.24; viability z-score without drug = -0.17; outcome = inactive
Polr1g (RNA polymerase I subunit G) → combined z-score class = no change with or without drug; viability z-score with doxorubicin = -0.9; viability z-score without drug = 0.84; outcome = inactive
Depp1 (DEPP1 autophagy regulator) → combined z-score class = no change with or without drug; viability z-score with doxorubicin = 0.9; viability z-score without drug = 1.01; outcome = inactive
Gpatch2l (G patch domain containing 2 like) → combined z-score class = no change with or without drug; viability z-score with doxorubicin = 0.9; viability z-score without drug = -0.51; outcome = inactive
Fam43a (family with sequence similarity 43, member A) → combined z-score class = no change with or without drug; viability z-score with doxorubicin = 1.12; viability z-score without drug = 1.52; outcome = inactive
Cables1 (CDK5 and Abl enzyme substrate 1) → combined z-score class = no change with or without drug; viability z-score with doxorubicin = -1.91; viability z-score without drug = 0.17; outcome = inactive
Cep250 (centrosomal protein 250) → combined z-score class = low cell count with doxorubicin only; viability z-score with doxorubicin = -2.25; viability z-score without drug = -1.85; outcome = active
Ccdc91 (coiled-coil domain containing 91) → combined z-score class = no change with or without drug; viability z-score with doxorubicin = -0.67; viability z-score without drug = 0.51; outcome = inactive
Ptrh1 (peptidyl-tRNA hydrolase 1 homolog) → combined z-score class = no change with or without drug; viability z-score with doxorubicin = -0.67; viability z-score without drug = 1.01; outcome = inactive
Glud1 (glutamate dehydrogenase 1) → combined z-score class = no change with or without drug; viability z-score with doxorubicin = -0.56; viability z-score without drug = -0.51; outcome = inactive
Mark3 (MAP/microtubule affinity regulating kinase 3) → combined z-score class = no change with or without drug; viability z-score with doxorubicin = 1.12; viability z-score without drug = -0.34; outcome = inactive
Fosl2 (fos-like antigen 2) → combined z-score class = no change with or without drug; viability z-score with doxorubicin = 0.45; viability z-score without drug = -0.51; outcome = inactive
